Measurements reported in publication PMC6658197.
Results are given in words; binding and its absence hold for the method and conditions named. Binding seen in cells or lysates may run through a third protein. Some binding calls cover weakened binding; strength is not graded here.

By UniProt entry, the sequences of proteins in these tests, tags left out.
UniProt Q60823: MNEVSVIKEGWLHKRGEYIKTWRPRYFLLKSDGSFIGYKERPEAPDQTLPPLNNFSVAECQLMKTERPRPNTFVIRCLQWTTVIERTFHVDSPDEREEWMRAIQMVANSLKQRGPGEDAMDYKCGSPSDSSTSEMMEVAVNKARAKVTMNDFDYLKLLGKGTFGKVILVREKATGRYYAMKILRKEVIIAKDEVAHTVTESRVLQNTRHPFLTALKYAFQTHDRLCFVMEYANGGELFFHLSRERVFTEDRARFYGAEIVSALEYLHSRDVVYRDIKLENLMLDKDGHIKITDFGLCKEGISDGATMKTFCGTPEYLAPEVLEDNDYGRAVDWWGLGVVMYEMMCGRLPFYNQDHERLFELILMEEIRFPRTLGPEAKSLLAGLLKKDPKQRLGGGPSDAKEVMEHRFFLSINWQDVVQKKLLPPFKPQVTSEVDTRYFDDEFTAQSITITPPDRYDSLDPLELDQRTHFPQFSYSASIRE

Molecular target: HA-tagged AKT2 WT (UniProt Q60823)
Assay: co-IP; HEK293T cells transiently transfected with HA-tagged AKT and ARHGAP36; IP with mouse anti-HA antibody (anti-IgG as negative control), blot with anti-ARHGAP36; IP buffer 20 mM Tris-HCl pH 8.0, 0.5% NP-40, 1 mM EDTA, 150 mM NaCl, 10% glycerol; with or without 10 uM iAKT1/2 for 20 hr (association decreased by the inhibitor)

binding: binds
B1: ARHGAP36 (protein, UniProt B1AUC7 1-590)
chain: MAWMLDCLFASAFEPRPRRVSVLGGAPGQNSDRSMDMVSIHSLSELERLKLQETAYHELVARHFLSEFKPDRALPTDRPNTLEKWFLMLRGQDRAASLKTFGIRLEEVLVNELTRRKQRELTPTMQVEDINGSTGRRRRGNVVQRMLGRMRRFFSRRRNEPTLPREFTRRGRRGAVSADSADELENGALLLQILQLSQLSSPIGQRLLGSKRKMSLNPIAQQIPQIVETCCKFIEKHGLSSVGIFTIEYSLRRVLELRELFDKGLDIVLDDSVNVHDVAELLKEFFREMKDPLLPDDLYMSFLLTATLKPKDQVSALQLLVYLMPPCHSDTLERLLKALHKITENCEDSIGVDGQLVPGNRMTSTNLALVFGTALLKKGKLANKESRKTKLGIDHYVASVNVVRAMIDNWDILFQVPPHIQKEVAKRVWKSSPEALDFIRRRNLRKIQSARIKMEEDALLSDPVENSAEAQAAILAQSQPFDEDPEGAPDVHEVLNDNLNYDFEDESDFEDQDHLDLAEVPYLDVIPNNEDTDSDADVIPGPSEEPAVPASTAGSPDKEEGAAGNPPNADRPLPRVPQGKKGKFATRFFP
